# Data from patent US20240141352A1, “CHAPERONIN-CONTAINING TCP-1 INHIBITORS FOR THE TREATMENT OF CANCER” (UNIVERSITY OF CENTRAL FLORIDA RESEARCH FOUNDATION, INC., priority 2021, published 2024).
# No constants are given. Whether binding was seen depends on the method and setting. Some results given as binding are weak or reduced against the parent protein; the word gives no strength.
# T1: CCT2 subunit (UniProt P78371)
# T1 sequence (looked up): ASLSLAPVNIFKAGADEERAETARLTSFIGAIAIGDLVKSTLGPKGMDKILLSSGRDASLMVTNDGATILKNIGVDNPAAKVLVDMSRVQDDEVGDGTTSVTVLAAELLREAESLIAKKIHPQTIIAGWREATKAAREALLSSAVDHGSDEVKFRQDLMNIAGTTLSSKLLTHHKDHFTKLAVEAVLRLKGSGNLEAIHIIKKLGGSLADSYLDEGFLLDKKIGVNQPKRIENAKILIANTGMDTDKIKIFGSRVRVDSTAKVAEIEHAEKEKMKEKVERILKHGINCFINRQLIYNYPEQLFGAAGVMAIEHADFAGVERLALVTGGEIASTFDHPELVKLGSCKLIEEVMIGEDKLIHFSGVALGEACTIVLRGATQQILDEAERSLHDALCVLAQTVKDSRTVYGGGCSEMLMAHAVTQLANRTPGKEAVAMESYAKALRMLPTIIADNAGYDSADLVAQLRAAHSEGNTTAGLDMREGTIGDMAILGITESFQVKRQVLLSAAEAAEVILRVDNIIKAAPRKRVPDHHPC
# Molecular target: T1, CCT2 subunit
# Assay: method not described
binder,measurement,value
VTIFVAGVLTASLTIWKKMG [CT20p],binding,binds
